Test results published in publication PMC9373822.
Results are given in words; binding and its absence hold for the method and conditions named. For some assays here: In cells and extracts the contact can be indirect. Some binding calls cover weakened binding; strength is not graded here. For some assays here: Sequences can lack the tags named with a protein.

Protein sequences, listed by entry. Tags and fused reporters are not part of them.
UniProt Q02111: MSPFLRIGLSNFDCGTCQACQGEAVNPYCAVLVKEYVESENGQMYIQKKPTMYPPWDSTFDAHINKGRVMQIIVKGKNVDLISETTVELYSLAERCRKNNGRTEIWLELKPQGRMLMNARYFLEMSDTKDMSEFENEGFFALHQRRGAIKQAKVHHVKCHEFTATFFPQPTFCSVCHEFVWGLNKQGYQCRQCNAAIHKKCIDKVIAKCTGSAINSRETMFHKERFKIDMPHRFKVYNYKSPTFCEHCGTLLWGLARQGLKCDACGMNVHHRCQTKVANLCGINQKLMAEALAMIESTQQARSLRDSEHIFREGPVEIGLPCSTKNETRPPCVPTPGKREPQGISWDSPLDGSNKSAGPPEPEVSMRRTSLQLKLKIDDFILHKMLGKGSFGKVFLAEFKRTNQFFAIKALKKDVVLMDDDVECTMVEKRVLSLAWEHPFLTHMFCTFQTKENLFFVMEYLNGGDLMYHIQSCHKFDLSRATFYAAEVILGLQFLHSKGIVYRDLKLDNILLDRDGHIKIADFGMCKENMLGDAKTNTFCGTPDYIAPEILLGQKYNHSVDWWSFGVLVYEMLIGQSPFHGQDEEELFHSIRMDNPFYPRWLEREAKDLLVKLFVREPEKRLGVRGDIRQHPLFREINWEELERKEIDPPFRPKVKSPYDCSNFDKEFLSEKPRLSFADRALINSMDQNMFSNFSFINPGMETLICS
UniProt Q12778: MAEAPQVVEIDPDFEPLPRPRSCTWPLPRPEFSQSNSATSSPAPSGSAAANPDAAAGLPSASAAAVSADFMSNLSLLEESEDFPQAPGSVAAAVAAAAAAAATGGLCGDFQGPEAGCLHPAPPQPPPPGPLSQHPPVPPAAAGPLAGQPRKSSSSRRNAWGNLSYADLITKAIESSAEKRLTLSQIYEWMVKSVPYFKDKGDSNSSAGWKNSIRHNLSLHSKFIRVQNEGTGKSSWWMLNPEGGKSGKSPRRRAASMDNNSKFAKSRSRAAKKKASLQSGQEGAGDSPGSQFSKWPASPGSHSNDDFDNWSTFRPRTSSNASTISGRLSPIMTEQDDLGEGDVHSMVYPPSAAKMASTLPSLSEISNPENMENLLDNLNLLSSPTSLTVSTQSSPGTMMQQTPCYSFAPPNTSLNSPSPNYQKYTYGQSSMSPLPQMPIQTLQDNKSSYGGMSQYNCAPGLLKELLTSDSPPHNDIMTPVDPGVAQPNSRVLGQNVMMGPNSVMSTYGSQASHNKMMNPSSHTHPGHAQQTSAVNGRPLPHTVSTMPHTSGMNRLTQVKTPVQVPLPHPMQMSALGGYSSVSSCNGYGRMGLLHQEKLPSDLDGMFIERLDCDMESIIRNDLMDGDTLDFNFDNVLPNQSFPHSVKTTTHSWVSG
UniProt Q9R1E0: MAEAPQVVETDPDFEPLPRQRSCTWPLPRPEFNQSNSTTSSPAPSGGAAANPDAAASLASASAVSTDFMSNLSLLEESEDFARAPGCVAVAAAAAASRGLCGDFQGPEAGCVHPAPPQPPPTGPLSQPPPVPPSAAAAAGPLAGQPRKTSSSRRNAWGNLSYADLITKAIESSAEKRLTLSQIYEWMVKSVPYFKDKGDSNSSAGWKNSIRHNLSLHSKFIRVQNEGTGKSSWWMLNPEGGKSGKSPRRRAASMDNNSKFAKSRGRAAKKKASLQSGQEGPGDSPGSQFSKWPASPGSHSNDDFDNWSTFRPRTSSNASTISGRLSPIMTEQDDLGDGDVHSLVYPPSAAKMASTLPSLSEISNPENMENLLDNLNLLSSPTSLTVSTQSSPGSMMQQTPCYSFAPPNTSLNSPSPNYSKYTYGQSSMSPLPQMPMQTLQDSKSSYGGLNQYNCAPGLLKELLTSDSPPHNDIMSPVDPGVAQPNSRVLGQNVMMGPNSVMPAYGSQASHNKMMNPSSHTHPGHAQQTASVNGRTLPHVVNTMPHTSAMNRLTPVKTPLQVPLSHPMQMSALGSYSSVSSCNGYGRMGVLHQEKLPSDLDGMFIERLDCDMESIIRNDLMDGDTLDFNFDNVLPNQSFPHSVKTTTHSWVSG
UniProt Q99JP0: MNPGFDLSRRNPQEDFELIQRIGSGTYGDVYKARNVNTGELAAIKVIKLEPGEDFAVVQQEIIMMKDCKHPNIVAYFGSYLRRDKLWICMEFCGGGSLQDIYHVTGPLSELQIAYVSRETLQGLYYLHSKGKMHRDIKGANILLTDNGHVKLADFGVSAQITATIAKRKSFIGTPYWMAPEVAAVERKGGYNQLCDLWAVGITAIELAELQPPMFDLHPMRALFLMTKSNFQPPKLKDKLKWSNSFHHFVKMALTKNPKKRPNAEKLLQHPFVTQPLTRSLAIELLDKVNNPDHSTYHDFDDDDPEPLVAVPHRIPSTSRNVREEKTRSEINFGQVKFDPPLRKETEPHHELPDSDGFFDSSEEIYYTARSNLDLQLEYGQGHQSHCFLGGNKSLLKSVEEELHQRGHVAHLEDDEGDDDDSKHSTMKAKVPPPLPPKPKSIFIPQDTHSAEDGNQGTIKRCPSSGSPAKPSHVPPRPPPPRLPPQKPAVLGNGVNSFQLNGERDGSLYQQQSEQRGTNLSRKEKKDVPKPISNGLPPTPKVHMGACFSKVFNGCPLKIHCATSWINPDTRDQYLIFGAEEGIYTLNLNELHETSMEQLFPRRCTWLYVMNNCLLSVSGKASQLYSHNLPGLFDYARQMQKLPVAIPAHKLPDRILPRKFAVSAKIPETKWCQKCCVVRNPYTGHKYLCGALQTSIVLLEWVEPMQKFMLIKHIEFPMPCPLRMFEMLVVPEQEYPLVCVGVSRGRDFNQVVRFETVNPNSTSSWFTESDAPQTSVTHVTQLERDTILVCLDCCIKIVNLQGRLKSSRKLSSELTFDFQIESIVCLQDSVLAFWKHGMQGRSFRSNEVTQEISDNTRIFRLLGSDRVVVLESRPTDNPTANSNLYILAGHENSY
UniProt Q8IVH8: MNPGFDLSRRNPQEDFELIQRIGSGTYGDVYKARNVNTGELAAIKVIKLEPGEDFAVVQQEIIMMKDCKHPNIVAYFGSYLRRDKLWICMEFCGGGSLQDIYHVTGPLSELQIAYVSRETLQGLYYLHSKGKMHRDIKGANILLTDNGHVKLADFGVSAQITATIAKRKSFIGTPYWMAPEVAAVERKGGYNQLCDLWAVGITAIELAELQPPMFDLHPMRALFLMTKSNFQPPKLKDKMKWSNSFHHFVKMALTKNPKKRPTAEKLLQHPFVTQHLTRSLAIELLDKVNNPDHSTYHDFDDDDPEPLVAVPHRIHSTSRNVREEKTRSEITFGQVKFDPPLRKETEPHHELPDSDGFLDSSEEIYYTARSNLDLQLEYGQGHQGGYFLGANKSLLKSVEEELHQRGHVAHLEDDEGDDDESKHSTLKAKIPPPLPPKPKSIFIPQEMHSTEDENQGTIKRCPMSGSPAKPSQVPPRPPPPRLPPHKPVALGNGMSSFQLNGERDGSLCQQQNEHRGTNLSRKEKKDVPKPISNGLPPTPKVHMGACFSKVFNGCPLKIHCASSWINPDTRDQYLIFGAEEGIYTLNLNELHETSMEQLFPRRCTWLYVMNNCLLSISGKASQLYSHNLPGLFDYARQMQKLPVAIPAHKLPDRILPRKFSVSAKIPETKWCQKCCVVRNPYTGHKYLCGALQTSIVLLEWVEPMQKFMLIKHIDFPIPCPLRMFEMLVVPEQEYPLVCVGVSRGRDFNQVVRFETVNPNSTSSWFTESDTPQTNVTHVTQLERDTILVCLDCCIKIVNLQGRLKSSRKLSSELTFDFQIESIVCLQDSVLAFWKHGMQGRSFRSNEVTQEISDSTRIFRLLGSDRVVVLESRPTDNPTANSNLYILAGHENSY

What was measured:
[1] = target: T1, endogenous IKKβ of murine T cells (mouse (endogenous in murine T cells)) (UniProt O88351); assay: proximity ligation; in situ PLA (Duolink) of endogenous proteins in iTreg cells differentiated in vitro from T cells of wild-type and Lck-GLK Tg mice; within 40 nm
T1 sequence: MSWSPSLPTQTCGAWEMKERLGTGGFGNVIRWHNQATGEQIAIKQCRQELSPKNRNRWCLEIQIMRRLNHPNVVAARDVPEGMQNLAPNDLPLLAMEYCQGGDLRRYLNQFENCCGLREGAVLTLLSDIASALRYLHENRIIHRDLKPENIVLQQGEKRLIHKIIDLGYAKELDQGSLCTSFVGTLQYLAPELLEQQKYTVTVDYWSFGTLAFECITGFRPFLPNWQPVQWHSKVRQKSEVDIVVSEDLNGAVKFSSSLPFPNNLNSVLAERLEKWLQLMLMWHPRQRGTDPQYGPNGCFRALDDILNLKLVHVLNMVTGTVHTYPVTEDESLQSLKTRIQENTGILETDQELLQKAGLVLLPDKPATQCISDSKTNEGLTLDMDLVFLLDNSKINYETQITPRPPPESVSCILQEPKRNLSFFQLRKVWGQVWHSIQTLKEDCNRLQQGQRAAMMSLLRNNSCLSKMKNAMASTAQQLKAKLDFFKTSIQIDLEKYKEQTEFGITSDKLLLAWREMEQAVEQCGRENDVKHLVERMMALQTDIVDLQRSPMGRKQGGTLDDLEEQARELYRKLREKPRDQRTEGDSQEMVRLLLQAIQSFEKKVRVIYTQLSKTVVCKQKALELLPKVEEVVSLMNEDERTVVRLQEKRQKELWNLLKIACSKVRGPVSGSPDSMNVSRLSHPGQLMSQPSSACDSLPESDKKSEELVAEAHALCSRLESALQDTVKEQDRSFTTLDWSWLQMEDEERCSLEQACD

CFP-fused IKKβ = target: T2, CFP-fused IKKβ (UniProt O14920); assay: FRET or BRET; YFP-FoxO1 and CFP-IKKβ co-transfected into HEK293T cells; plate reader; signal within 8 nm
T2 sequence: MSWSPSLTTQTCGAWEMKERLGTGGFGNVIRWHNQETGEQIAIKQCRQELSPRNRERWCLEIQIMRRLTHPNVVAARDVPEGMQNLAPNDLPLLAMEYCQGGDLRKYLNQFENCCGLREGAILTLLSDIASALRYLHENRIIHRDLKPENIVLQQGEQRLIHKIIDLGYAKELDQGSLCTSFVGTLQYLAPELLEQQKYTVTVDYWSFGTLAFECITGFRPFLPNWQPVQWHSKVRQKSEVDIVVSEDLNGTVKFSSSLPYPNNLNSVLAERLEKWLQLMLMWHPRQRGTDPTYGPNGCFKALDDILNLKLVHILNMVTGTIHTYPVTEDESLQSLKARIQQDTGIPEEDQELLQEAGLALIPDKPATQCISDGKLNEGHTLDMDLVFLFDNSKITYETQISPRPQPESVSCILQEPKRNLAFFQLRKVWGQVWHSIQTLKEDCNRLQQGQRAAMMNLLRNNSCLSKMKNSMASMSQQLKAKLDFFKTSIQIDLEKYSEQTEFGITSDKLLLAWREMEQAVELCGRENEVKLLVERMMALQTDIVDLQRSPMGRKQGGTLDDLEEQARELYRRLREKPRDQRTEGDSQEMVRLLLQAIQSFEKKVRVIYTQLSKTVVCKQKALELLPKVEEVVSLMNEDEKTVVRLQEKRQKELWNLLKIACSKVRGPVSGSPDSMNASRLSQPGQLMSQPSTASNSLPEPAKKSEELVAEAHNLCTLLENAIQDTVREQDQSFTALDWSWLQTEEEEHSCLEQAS

HA-tagged IKKβ [2] = target: T3, HA-tagged IKKβ (UniProt O14920); assay: AlphaScreen or HTRF; ALPHA with donor/acceptor AlphaLISA beads in lysates of HEK293T transfectants; signal within 200 nm
T3 sequence: T2 sequence

HA-tagged IKKβ [3] = target: T3, HA-tagged IKKβ; assay: co-IP; lysates of transfected HEK293T cells; tagged proteins, immunoblotting; performed as in ref. 13
GST-tagged IKKβ = target: T4, GST-tagged IKKβ (UniProt O14920); assay: pull-down; in vitro binding assay (GST pulldown) with purified Flag-tagged FoxO1 and GST-tagged IKKβ; both purified
T4 sequence: T2 sequence

[4] = target: endogenous PKCθ of murine T cells (mouse (endogenous in murine T cells)) (UniProt Q02111); assay: proximity ligation; in situ PLA (Duolink) in T cells from wild-type, Lck-GLK Tg and Lck-GLK Tg/PKCθ KO mice; stimulated with anti-CD3 antibodies plus streptavidin (3 μg/ml); within 40 nm
[5] = target: T1, endogenous IKKβ of murine T cells (mouse (endogenous in murine T cells)); assay: as above
Flag-tagged FoxO1 = Flag-tagged FoxO1 (UniProt Q12778); assay: AlphaScreen or HTRF; ALPHA with donor/acceptor AlphaLISA beads in lysates of HEK293T transfectants; signal within 200 nm

Question: Which binding [1] does the source give for “endogenous FoxO1 of murine iTreg cells (from UniProt Q9R1E0 1-652)” here?
Answer: Its binding is “binds”.

Question: How did the binding (CFP-fused IKKβ) turn out when “YFP-fused FoxO1 (from UniProt Q12778 1-655)” was run?
Answer: The binding was “binds”.

Question: How did the binding (HA-tagged IKKβ [2]) turn out when “Flag-tagged FoxO1 (from UniProt Q12778 1-655)” was run?
Answer: The binding was “binds”.

Question: And the binding (HA-tagged IKKβ [3])?
Answer: The binding was “binds”.

Question: Which binding (GST-tagged IKKβ) does the source give for “Purified Flag-tagged FoxO1 (from UniProt Q12778 1-655)” here?
Answer: Its binding is “binds”.

Question: What does the source list for “endogenous GLK of wild-type murine T cells (from UniProt Q99JP0 1-894) (enzyme)”?
Answer: binding [4]: binds; binding [5]: no binding

Question: “GLK of Lck-GLK transgenic T cells (full-length human GLK transgene) (from UniProt Q8IVH8 1-894) (enzyme)” was tested. Which binding [4] did it give?
Answer: Its binding is “binds”.

Question: What about the binding [5] of the same substance?
Answer: Its binding is “binds”.

Question: “Flag-tagged GLK (from UniProt Q8IVH8 1-894) (enzyme)” was tested. Which binding (Flag-tagged FoxO1) did it give?
Answer: The binding was “no binding”.

Question: And the binding (HA-tagged IKKβ [3])?
Answer: The binding was “binds”.
